The other results are listed elsewhere or left out.
Biological target: T1, OsSMF1 (Oryza sativa, UniProt Q6ZLB0 1-436)
T1 sequence: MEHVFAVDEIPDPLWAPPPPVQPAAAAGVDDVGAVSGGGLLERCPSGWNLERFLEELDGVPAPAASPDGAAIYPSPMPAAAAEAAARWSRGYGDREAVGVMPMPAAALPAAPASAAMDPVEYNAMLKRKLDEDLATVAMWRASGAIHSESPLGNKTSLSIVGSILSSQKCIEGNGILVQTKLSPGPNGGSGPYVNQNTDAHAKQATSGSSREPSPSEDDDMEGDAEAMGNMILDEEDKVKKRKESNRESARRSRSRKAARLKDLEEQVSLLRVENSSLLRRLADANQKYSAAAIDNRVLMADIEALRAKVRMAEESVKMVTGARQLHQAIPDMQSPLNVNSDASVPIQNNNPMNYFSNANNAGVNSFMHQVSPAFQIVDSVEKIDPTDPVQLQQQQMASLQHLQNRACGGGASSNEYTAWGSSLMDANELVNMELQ
Test: protein-binding microarray (RPBM); PBS, 2% BSA, 51.3 ng/ul salmon testes DNA, 50 uM zinc acetate, 200 nM TF, 25 C, 1 h; high values mean tight binding
Settings: protein: recombinant; tags: N-terminal polyhistidine and DsRed monomer fusion (pET32a); chain copies: 2; label: CyDye5-dUTP incorporated in the synthesized complementary strand; 3' TTTTT single-stranded linker to array surface; dsDNA, one strand shown
Summary of the method: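 Transcription factors, each fused N-terminally to a polyhistidine tag and DsRed, were expressed in E. coli BL21-CodonPlus and purified on Ni–NTA. A custom Agilent array was made double-stranded by primer extension with Cy5-dUTP and blocked with 2% BSA. It was incubated with 200 nM protein in PBS, 2% BSA, salmon testes DNA and 50 µM zinc acetate at 25 °C for 1 h, then washed. The binding signal is per-feature fluorescence intensity (arbitrary units) read on an Axon 4000B scanner.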

Row | Sequence | binding signal
1 | GCACGTGGTGGGCTGAGGTGTTGGGCCGTGGTCACGTGGGCGGAGTCACCTAGTGCAG | 3160 fluorescence intensity (a.u.)
2 | CGACCGATGTGCGGTGCACTCGTGCAACCGCGTCGTCGCTCGGAGTCACCTAGTGCAG | 3390 fluorescence intensity (a.u.)
3 | CATCCATGGCATAAAGCTCCCTCCTCAGCTCCCACCTCCGCGGAGTCACCTAGTGCAG | 3260 fluorescence intensity (a.u.)
4 | CTTCTGCTTCTTATCAGCTTTACTGCGAGTTTCCGAGCACCGGAGTCACCTAGTGCAG | 16700 fluorescence intensity (a.u.)
5 | GGGTCACAGTTCCGGTGGCCTACCGAAGACCACGCGTACGCGGAGTCACCTAGTGCAG | 3650 fluorescence intensity (a.u.)
6 | CTGCGCGTAGAAGTGACGCAAGAAGGCAGCGGGCCCACTACGGAGTCACCTAGTGCAG | 3230 fluorescence intensity (a.u.)
7 | TGTTATAGTGTAATTATATATAATTACATTATAGCATATACGGAGTCACCTAGTGCAG | 3420 fluorescence intensity (a.u.)
8 | AACGGGTATAGTTGCATTACCGCTTTCCTCAGTGCGTCATCGGAGTCACCTAGTGCAG | 3480 fluorescence intensity (a.u.)
9 | TCTAAGACTGAACTTTCCTGTATACATATATTTTGAAAAGCGGAGTCACCTAGTGCAG | 24600 fluorescence intensity (a.u.)
10 | GGAGATCATAGTTTGTTTTGGTGCTGTCTGTCTTGGTAGTCGGAGTCACCTAGTGCAG | 20900 fluorescence intensity (a.u.)
11 | TATCAAATATTTTGATAATGCCAAGTCATTTTGGAGGTTCCGGAGTCACCTAGTGCAG | 3790 fluorescence intensity (a.u.)
12 | TCTCCTCTCGCTCTCGCCATCTCGCCGCCGGCCTCCTCCACGGAGTCACCTAGTGCAG | 3240 fluorescence intensity (a.u.)
13 | CGATCTCCCGGCGTGCCAAGGACATAAACACGTAAGGCGGCGGAGTCACCTAGTGCAG | 5600 fluorescence intensity (a.u.)
14 | TCTTTGGGAGCGTATGGCGCATGCTTCCCAGCTGACGAGGCGGAGTCACCTAGTGCAG | 6270 fluorescence intensity (a.u.)
15 | GGCCTGCGTGTGATCCTGGATTTCGATCAATTGTGTGTCACGGAGTCACCTAGTGCAG | 3750 fluorescence intensity (a.u.)
16 | CTACAAATACGTAGCGTCACTCGCTTGCATTGCATCGCATCGGAGTCACCTAGTGCAG | 5520 fluorescence intensity (a.u.)
17 | GACCGTTGCATTGACATGTAACCTCCAACGCATTGCCTCTCGGAGTCACCTAGTGCAG | 5210 fluorescence intensity (a.u.)
18 | ACCTCCAAAGTTCACACATCCATCAATGTCATAACATGGACGGAGTCACCTAGTGCAG | 3400 fluorescence intensity (a.u.)
19 | CGATATATTACCCTAATGATGTGTCAGATGGGGATTGTTTCGGAGTCACCTAGTGCAG | 10300 fluorescence intensity (a.u.)
20 | TCATTTAGGTGTACACCTAAATGATCATTTTAGGTGTACACGGAGTCACCTAGTGCAG | 3610 fluorescence intensity (a.u.)
21 | AGGATGGGCGGGAGCACGTCAGACTTGGCACCCAGCACCTCGGAGTCACCTAGTGCAG | 5400 fluorescence intensity (a.u.)
22 | CCAGGTGATTAATACCATATCATGAGTTGGCAATGCTGAACGGAGTCACCTAGTGCAG | 4290 fluorescence intensity (a.u.)
23 | TTGGAATGACGCTTTAATTCCATGTAGTGCTATCTCTCCACGGAGTCACCTAGTGCAG | 3480 fluorescence intensity (a.u.)

Taken from above:
Value for CGATATATTACCCTAATGATGTGTCAGATGGGGATTGTTTCGGAGTCACCTAGTGCAG under binding signal: 10300 fluorescence intensity (a.u.)
Value for TCTAAGACTGAACTTTCCTGTATACATATATTTTGAAAAGCGGAGTCACCTAGTGCAG under binding signal: 24600 fluorescence intensity (a.u.)
